The values below come from patent US20220062165A1, “COMPOSITIONS AND METHODS FOR INTRANASAL DELIVERY OF PREGNENOLONE” (M et P Pharma AG, priority 2018, published 2022).

This series has as its system extracellular acetylcholine levels in the amygdala. Put plainly: In vivo microdialysis after lateralized intranasal administration (one nostril), amygdala. Set-up: species or system rat. The note with it: 11.2 mg/mL, 5 μl one nostril. An excerpt:
Subjects. A total number of 10 adult male Wistar rats 3-4 months of age and weighting between 400 and 500 grams, at the time of surgery, were obtained from the local animal facility (Tierversuchsanlage, University of Dusseldorf, Germany). They were grouped 4 per cage (Makrolon cage, type IV, 60.0×20.0×38.0 centimeter), and separated into individual cases after the surgery. They were housed under a reversed light-dark cycle (light off from 7 after midnight (AM) to 7 post meridiem (PM)), with free access to food and water. […] After two weeks of adaptation, animals underwent microdialysis as described below. All experiments were carried out in accordance with the European Communities Council Directive (86/609/EEC) on animal welfare, and approved by the German Animal Protection Law Authorities—LANUV Nordrhein-Westfalen.
Surgery. Rats underwent implantation of microdialysis probes into specific brain areas. They were anesthetized with a mixture of ketamine hydrochloride (90.0 milligram/kilogram (mg/kg); Pharmacia & Upjohn) and xylazine hydrochloride (8.0 mg/kg; Bayer) and placed in a stereotaxic frame (David Kopf Instruments). Additionally, Bupivacaine (2.5 milligram/milliliter(mg/mL), injection volume 0.1 milliliter (mL) above the skull; Bucain, Deltaselect HmbH) was applied as a local anesthetic. Two guide cannulae (14 millimeter (mm) long, 26 gauge) for microdialysis probes were implanted in both the right and left amygdala (Anteriorposterior (AP):—2.5 mm; Mediolateral (ML): ±4.6 mm; Dorsoventral (DV):—7.2 mm). All coordinates were relative to bregma according to a rat brain atlas (Paxinos G, Watson C (1986) THE RAT BRAIN IN STEREOTACTIC COORDINATES (Academic, New York), 2nd Edition). For additional fixation of the implant, two stainless steel screws of 2.6 mm were fastened to the skull. In order to reduce postoperative pain, Carprofen (5 mg/kg Rimadyl, Pfizer) carried by phosphate-buffered saline (Dulbecco's Phophate Buffered Saline (PBS), Life Technologies Ltd) was injected into the head-neck area with an injection volume of 1 mg/kg (0.1 milliliter/kilogram carprofen and 0.9 milliliter/kilogram Phophate Buffered Saline (PBS)). The animals were allowed to recover from surgery for 3 to 6 days before the microdialysis was performed.
Microdialysis. Prior the microdialysis process, the animals were anesthetized with Urethane intraperitoneal injection. (1.25 gram/kilogram, Sigma Aldrich). To allow fluid supply (perfusion liquid) (Ringer's solution 0.2 milliliter every 20 minutes) without physical contact with the animal, a catheter was placed into the intraperitoneal cavity. The animal was placed in an acrylic box (45×25×22 centimeter), and the body temperature was monitored and held stable at 36.5±0.5 degrees Celsius by atemperature controller (CMA/150) and a heating pad. The inlet tubes were connected to a microinfusion pump (CMA/100) and were perfused with Ringer's solution containing Neostigmine (10 micromoles) with a flow rate of 2 microliter/minute (perfusate). The fluid rate of the fluid flowing through the probe was thus controlled by the syringe pump. Neostigmine is a cholinesterase inhibitor which was perfused in order to obtain levels of acetylcholine easily detectable with the HPLC method currently available (sensitivity limits 50-100 femtomole/injection). The inhibition of cholinesterase caused continuous occupation of muscarinic presynaptic inhibitory receptors, thereby maintaining an inhibitory tone which controlled acetylcholine release from the cholinergic terminal. de Boer, P. et al., “The effect of acetylcholinesterase inhibition on the release of acetylcholine from the striatum in vivo: interaction with autoreceptor responses,” Neurosci. Lett., 116, 357-360 (1990). The perfusate was designed to have a lower concentration compared to the area surrounding the probe, which ensured that the flow of the flux went into the probe and not the other way around. […]

Turning to `CC(=O)[C@H]1CC[C@H]2[C@@H]3CC=C4C[C@@H](O)CC[C@]4(C)[C@H]3CC[C@]12C` [pregnenolone], the “Difference in extracellular release of acetylcholine (ipsilateral vs. contralateral amygdala), t-test p” value by setting is: (10 min after administration) −4.024, p = 0.003; (20 min after administration) −4.383, p = 0.0001; (30 min after administration) −4.287, p = 0.001; (40 min after administration) −3.411, p = 0.003; (50 min after administration) −5.764, p = 0.0001; (60 min after administration) −4.364, p = 0.001. Besides, the “Difference in extracellular release of acetylcholine (ipsilateral vs. contralateral amygdala), t-test p” value is recorded as −3.911, p = 0.001 (70 min after administration); −3.737, p = 0.002 (80 min after administration); −3.896, p = 0.003 (90 min after administration); −4.036, p = 0.001 (100 min after administration).
